The series has as its system BT-474 xenograft tumors.

Read-outs that look alike come from different tables or passages of the source.

Consider `CC[C@@]1(O)C(=O)OCc2c1cc1n(c2=O)Cc2cc3ccccc3nc2-1` [CPT, Camptothecin], for which the “NNTRD (number of non-treatment related death)” value (8 mg/kg (MAP-CPT on CPT basis) i.v. once per week for 3 weeks) is reported as 0. For `CCc1c2c(nc3ccc(OC(=O)N4CCC(N5CCCCC5)CC4)cc13)-c1cc3c(c(=O)n1C2)COC(=O)[C@]3(O)CC` [Irinotecan], the “NNTRD (number of non-treatment related death)” value (80 mg/kg i.v. once per week for 3 weeks) is 0.

For the origin of these results see patent EP2961395B1, “TARGETED NANOPARTICLES” (CALIFORNIA INSTITUTE OF TECHNOLOGY, priority 2013, dated 2014).
